Values of other authors in patent publication US7645795B2, “Method for treating amyotrophic lateral sclerosis” (BodyBio, Inc, priority 2004, dated 2010).
At least one structure is not confirmed: it was looked up by name or label, or the drawing left a doubt.

Tested on: "SOD1" mouse model of ALS
Conditions: compared with riluzole

SMILES: CN(C)c1ccc(O)c2c1C[C@H]1C[C@H]3[C@H](N(C)C)C(O)=C(C(N)=O)C(=O)[C@@]3(O)C(O)=C1C2=O [minocycline]
- Effect on SOD1 mouse survival: roughly equivalent to that of riluzole
